Results deposited as PubChem BioAssay AID686938 (Drosophila RNAi Screening Center, 2013).
Aim: 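Fly genes required for calcium entry once internal stores are emptied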 (primary screen). Cells: Drosophila S2R+ cells. Reagent: long dsRNA against Drosophila genes, about 0.25 µg dsRNA per well, roughly 10,000 cells. Duration: 5 days of knock-down before the calcium assay. Treatment: thapsigargin (SERCA pump blocker) to empty calcium stores; entry signal taken 4 min after adding it. Measured: 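Per-well fluo-4 fluorescence in two replicates, unnormalised, measured in resting cells and 4 min after store depletion by the SERCA blocker thapsigargin; ratio of the two present in few wells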. Scale: calcium entry signal: higher = stronger calcium signal after store depletion; resting calcium signal: higher = higher resting calcium signal. Units: calcium entry signal in fluorescence units; resting calcium signal in fluorescence units. Rule for the call: 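Called when the plate z-score of the entry-to-rest ratio, mean of duplicates, falls below −3; wells with low overall dye signal (Fmax z below −2) or more than five off-targets excluded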. Meaning of the calls: active = strongly reduced calcium entry; inactive = no strong reduction.
The screen tested about 23,000 reagents; shown is a random part of those that have a named target and a result. Of all reagents, 75 (0.33%) are marked active. 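Raw plate signals without normalisation; calls rest on plate z-scores that were not deposited; ratio present for only 364 wells.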 Entries without a mark were called inactive. No sequences are given here. Not stated in the record: the dose of the treatment.

Knock-down of Der-2 (Derlin-2) [DRSC15021] gave: calcium entry signal, replicate 1 = 3.32e7; calcium entry signal, replicate 2 = 5.07e7; resting calcium signal, replicate 1 = 1.76e7; resting calcium signal, replicate 2 = 6.57e7.
Silencing of CG31200 [DRSC15285] resulted in: calcium entry signal, replicate 1 = 4.26e7; calcium entry signal, replicate 2 = 5.34e7; resting calcium signal, replicate 1 = 6.92e7; resting calcium signal, replicate 2 = 2.41e7.
After knock-down of CG14564 [DRSC11725], the screen gave calcium entry signal, replicate 1 = 3.29e7; calcium entry signal, replicate 2 = 5.27e7; resting calcium signal, replicate 1 = 1.57e7; resting calcium signal, replicate 2 = 2.31e7.
Silencing of CG14564 [DRSC22388] came out at: calcium entry signal, replicate 1 = 3.39e7; calcium entry signal, replicate 2 = 3.28e7; resting calcium signal, replicate 1 = 1.60e7; resting calcium signal, replicate 2 = 1.62e7.
Against Adf1 (Adh transcription factor 1) [DRSC04941], the values are calcium entry signal, replicate 1 = 2.98e7; calcium entry signal, replicate 2 = 6.10e7; resting calcium signal, replicate 1 = 1.49e7; resting calcium signal, replicate 2 = 2.72e7.
Against Adf1 (Adh transcription factor 1) [DRSC04963], the entry reads calcium entry signal, replicate 1 = 3.50e7; resting calcium signal, replicate 1 = 1.87e7.
Knock-down of CR32745 (pseudo) [DRSC17442] came out at: calcium entry signal, replicate 1 = 3.06e7; calcium entry signal, replicate 2 = 3.66e7; resting calcium signal, replicate 1 = 1.44e7; resting calcium signal, replicate 2 = 1.84e7.
Against Nepl3 (Neprilysin-like 3) [DRSC02681] the deposit lists calcium entry signal, replicate 1 = 4.39e7; resting calcium signal, replicate 1 = 2.11e7.
DNAlig3 (DNA ligase 3) [DRSC15201] gave calcium entry signal, replicate 1 = 3.47e7; calcium entry signal, replicate 2 = 3.60e7; resting calcium signal, replicate 1 = 1.78e7; resting calcium signal, replicate 2 = 1.96e7.
CG33483 [DRSC14019] showed calcium entry signal, replicate 1 = 3.74e7; calcium entry signal, replicate 2 = 4.55e7; resting calcium signal, replicate 1 = 1.95e7; resting calcium signal, replicate 2 = 1.75e7.
CG32487 [DRSC21745] scored calcium entry signal, replicate 1 = 3.30e7; calcium entry signal, replicate 2 = 3.78e7; resting calcium signal, replicate 1 = 1.82e7; resting calcium signal, replicate 2 = 1.74e7.
After knock-down of CG42809 [DRSC02532], the record shows calcium entry signal, replicate 1 = 3.91e7; calcium entry signal, replicate 2 = 2.81e7; resting calcium signal, replicate 1 = 1.62e7; resting calcium signal, replicate 2 = 1.27e7.
CG13733 [DRSC10061] showed calcium entry signal, replicate 1 = 3.67e7; calcium entry signal, replicate 2 = 5.31e7; resting calcium signal, replicate 1 = 1.75e7; resting calcium signal, replicate 2 = 2.12e7.
CG1213 [DRSC12191] scored calcium entry signal, replicate 1 = 4.46e7; calcium entry signal, replicate 2 = 3.97e7; resting calcium signal, replicate 1 = 2.22e7; resting calcium signal, replicate 2 = 1.81e7.
